Test results reported in article PMC13577001, “Crystal structures of the μ2 subunit of clathrin-adaptor protein 2 in complex with peptides derived from human papillomavirus 16 E7” (The Journal of Microbiology, 2025).
Results are given in words; binding and its absence hold for the method and conditions named.

Amino acid sequences for entries named in this document (tags omitted). A change or cut given only in a name is not applied to a line headed by its entry. Residues count along the entry.
UniProt P84092, residues 158-435: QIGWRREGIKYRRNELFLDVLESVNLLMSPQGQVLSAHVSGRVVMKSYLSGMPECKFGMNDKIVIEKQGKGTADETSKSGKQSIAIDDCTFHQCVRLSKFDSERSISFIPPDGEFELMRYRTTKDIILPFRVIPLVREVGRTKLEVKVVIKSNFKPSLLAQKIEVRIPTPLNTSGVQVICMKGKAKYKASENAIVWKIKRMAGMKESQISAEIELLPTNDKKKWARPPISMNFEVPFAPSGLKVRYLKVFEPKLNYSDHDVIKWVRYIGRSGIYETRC
UniProt P06788: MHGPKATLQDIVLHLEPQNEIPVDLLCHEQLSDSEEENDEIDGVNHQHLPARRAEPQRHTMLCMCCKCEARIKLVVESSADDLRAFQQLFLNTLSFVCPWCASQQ

Target: μ2 subunit of clathrin-adaptor protein 2 (AP2-μ2), residues 158–435, wild type (rat) (UniProt P84092)
Assay: ITC; peptide titrated into recombinant AP2-μ2; 50 mM Tris-HCl (pH 7.5), 500 mM NaCl, 3 mM β-mercaptoethanol; in Fig. 2 peptide 0.2 mM into 10 μM AP2-μ2; both purified

## HPV18 E7(25–42) 18-mer peptide (from UniProt P06788 25-42)
  binding: no binding
